For this assay, the system named is CD2F1 mice, P388/ADR leukemia ip, median survival T/C. Description: NCI In Vivo Anticancer Drug Screen. Data for tumor model P388 Leukemia resistant to Adriamycin; NSC 123127, Developed at Scr 08 (intraperitoneal) in CD2F1 (CDF1) mice. The settings on record: T/C endpoint: median survival time, higher T/C = longer survival. On the procedure:
The antitumor activity of compounds was measured in mice bearing transplantable tumors. Survival or tumor size were measured and the results are expressed as the measurement made in the treated group (T) divided by the measurement made in the vehicle treated control group (C). The tumor model used in this assay is P388 Leukemia resistant to Adriamycin; NSC 123127, Developed at Scr 08 (intraperitoneal) in CD2F1 (CDF1) mice

Where [1] appears, read: dose: 85.0 mg/kg/injection, schedule: Q01DX001 (ip), vehicle: water.

The list is a part of this screen's results and no random one: it gathers tests that were run many times, whatever their T/C, doses with no T/C, and many T/C values between a quarter and a half above the control. Other doses and runs of a compound stand elsewhere. T/C gives the treated animals as a percentage of the vehicle group. Some entries give survivors of the animals treated and no T/C: the source files T/C as zero there, which appears to mark a toxic dose or a test without result, not a measured value. Some survivor counts are full or nearly so, which does not show that the dose was tolerated: survival well below the control is almost never listed, so the zero probably covers shortened survival too. Survivors were counted at the toxicity check, usually on the fifth day, unless a day is given; later deaths do not show. Schedules are NCI's codes, taken here to give the interval after Q, in days (D) or hours (H), and the number of doses after X. Where survival is the endpoint, this PubChem deposit counts one and a half times the control or more as active, and values a quarter to a half above the control carry no call in these data; other NCI protocols may use other cut-offs. Additions like (4×) say how often a value occurs here. Some doses were run more than once; their values stand side by side, smallest first. Some T/C values carry the count of animals alive at the toxicity check (mostly the fifth day); where none is given, no animal had died by that day.

As for `O=CC(CO)CC(C=O)n1cnc2c(=O)[nH]cnc21` (stereo unspecified), the T/C (dose: 50.0 mg/kg/injection, schedule: Q01DX005 (ip), vehicle: saline, evaluated on day 27) was 145 % of control; the T/C (dose: 50.0 mg/kg/injection, schedule: Q01DX005 (ip), vehicle: saline, evaluated on day 30) is 139 % of control; the T/C (dose: 100.0 mg/kg/injection, schedule: Q01DX005 (ip), vehicle: saline) was 141 % of control.

Consider `CC1=C(C(N)=O)C(c2ccccc2)NC(=S)N1` (stereo unspecified), for which the survivor count is, setting by setting: (dose: 50.0 mg/kg/injection, schedule: Q01DX005 (ip), vehicle: Klucel (hydroxypropylcellulose) (HPC)) 10 of 10; (dose: 100.0 mg/kg/injection, schedule: Q01DX005 (ip), vehicle: Klucel (hydroxypropylcellulose) (HPC)) 10 of 10; (dose: 200.0 mg/kg/injection, schedule: Q01DX005 (ip), vehicle: Klucel (hydroxypropylcellulose) (HPC)) 9 of 10; (dose: 400.0 mg/kg/injection, schedule: Q01DX005 (ip), vehicle: Klucel (hydroxypropylcellulose) (HPC)) 8 of 10.

As to `COC(=O)[C@@]12OC[C@]34[C@H]([C@@H](O)[C@@H]1O)[C@@]1(C)CC(=O)C(OC(=O)CC(=O)OC5=C(C)[C@@H]6C[C@H]7OC(=O)[C@H](OC(=O)/C=C(\C)C(C)C)[C@H]8[C@]9(C(=O)OC)OC[C@]78[C@H]([C@@H](O)[C@@H]9O)[C@@]6(C)CC5=O)=C(C)[C@@H]1C[C@H]3OC(=O)[C@H](OC(=O)/C=C(\C)C(C)C)[C@@H]24`, the T/C (dose: 0.37 mg/kg/injection, schedule: Q01DX005 (ip), vehicle: saline + Tween-80 + alcohol) was 126 % of control; the T/C (dose: 0.75 mg/kg/injection, schedule: Q01DX005 (ip), vehicle: saline + Tween-80 + alcohol) was 134 % of control; the T/C (dose: 1.5 mg/kg/injection, schedule: Q01DX005 (ip), vehicle: saline + Tween-80 + alcohol) is 140 % of control; the T/C (dose: 3.0 mg/kg/injection, schedule: Q01DX005 (ip), vehicle: saline + Tween-80 + alcohol) was 130 % of control; the T/C (dose: 6.0 mg/kg/injection, schedule: Q01DX005 (ip), vehicle: saline + Tween-80 + alcohol) was 130 % of control.

Turning to `CN(C)[C@@H]1C(=O)C(C(=O)NCN2CCN(C(=N)N=C(N)N)CC2)=C(O)[C@@]2(O)C(=O)C3=C(O)c4c(O)cccc4[C@@](C)(O)[C@H]3C[C@@H]12`, the T/C is, setting by setting: (dose: 1.8 mg/kg/injection, schedule: Q01DX005 (ip), vehicle: saline) 126 and 135 % of control; (dose: 3.0 mg/kg/injection, schedule: Q01DX005 (ip), vehicle: saline) 129 % of control (2×); (dose: 5.0 mg/kg/injection, schedule: Q01DX005 (ip), vehicle: saline) 126 and 137 % of control; (dose: 8.33 mg/kg/injection, schedule: Q01DX005 (ip), vehicle: saline) 134 % of control [9 of 10 alive]. In addition, the survivor count (dose: 8.32 mg/kg/injection, schedule: Q01DX005 (ip), vehicle: saline) was 9 of 10; the survivor count (dose: 8.33 mg/kg/injection, schedule: Q01DX005 (ip), vehicle: suspension in saline) was 6 of 10; the survivor count (dose: 10.0 mg/kg/injection, schedule: Q01DX005 (ip), vehicle: saline) was 7 of 10; the survivor count (dose: 13.88 mg/kg/injection, schedule: Q01DX005 (ip), vehicle: saline) was 1 of 10; the survivor count (dose: 13.89 mg/kg/injection, schedule: Q01DX005 (ip), vehicle: saline) is recorded as 9 of 10; the survivor count (dose: 13.89 mg/kg/injection, schedule: Q01DX005 (ip), vehicle: suspension in saline) was 1 of 10.

Consider `NCCCN=c1ccc2c3c1c(O)c1c(O)ccc(=O)c1c3[nH]n2CCNCCO`, for which the T/C is 104 % of control (2×) (dose: 37.0 mg/kg/injection, schedule: Q01DX001 (ip), vehicle: water, evaluated on day 30); 106 % of control (2×) (dose: 37.0 mg/kg/injection, schedule: Q01DX001 (ip), vehicle: water, evaluated on day 45); 106 % of control (2×) (dose: 56.0 mg/kg/injection, schedule: Q01DX001 (ip), vehicle: water, evaluated on day 30); 100 % of control (2×) (dose: 56.0 mg/kg/injection, schedule: Q01DX001 (ip), vehicle: water, evaluated on day 45); 113 % of control (2×) under setting [1]. The survivor count is listed as 3 of 10 under setting [1] and 3 of 10 (dose: 125.0 mg/kg/injection, schedule: Q01DX001 (ip), vehicle: water).

As for `O=[N+]([O-])c1ccc([I+]c2ccccc2)cc1`, the T/C reads like this: (dose: 25.0 mg/kg/injection, schedule: Q01DX005 (ip), vehicle: saline with Tween-80) 128 % of control; (dose: 36.0 mg/kg/injection, schedule: Q01DX005 (ip), vehicle: saline with Tween-80) 139 % of control [9 of 10 alive]; (dose: 50.0 mg/kg/injection, schedule: Q01DX005 (ip), vehicle: saline with Tween-80) 135 % of control; (dose: 60.0 mg/kg/injection, schedule: Q01DX005 (ip), vehicle: saline with Tween-80) 137 % of control [8 of 10 alive]. Further, the survivor count runs as follows: (dose: 100.0 mg/kg/injection, schedule: Q01DX005 (ip), vehicle: saline with Tween-80) 4 of 10; (dose: 166.67 mg/kg/injection, schedule: Q01DX005 (ip), vehicle: saline with Tween-80) 1 of 10; (dose: 277.78 mg/kg/injection, schedule: Q01DX005 (ip), vehicle: saline with Tween-80) 0 of 10.

For the origin of these results see PubChem BioAssay AID322 (DTP/NCI, 2004).
